{"source": "PubChem BioAssay AID652243 (Drosophila RNAi Screening Center, 2013)", "screen": "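Fly genes required for human androgen receptor driven transcription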 (primary screen)", "system": "Drosophila S2R+ cells", "knock-down reagent": "long dsRNA against Drosophila genes", "time to read-out": "72 h (48 h, then 24 h hormone)", "challenge": "synthetic androgen R1881 at 10 nM for 24 h", "read-out": "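Firefly light from an androgen-responsive reporter and Renilla control light per well, raw and unnormalised, for each of two replicates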", "reading the numbers": "firefly reporter light: higher = more light from androgen-responsive reporter; Renilla control light: higher = more constitutive control signal (cell number, transfection)", "call rule": "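Hit when the log firefly-to-Renilla ratio dropped or increased by a fixed fold versus the mean of GFP or LacZ controls across duplicate plates; lowering cut given as 1.5 and as 3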", "meaning of the calls": "active = hit: reporter lowered or raised; inactive = no hit", "note": "In all, the deposit lists about 24,000 reagents; below is an unselected part of those with a known target gene and a result. In the full data, 246 (1%) are marked active. 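Plates not normalised; calls are printed but the firefly/Renilla ratio behind them is not deposited; fold cut for lowering reported inconsistently.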 Raw values vary from plate to plate and are shown uncorrected. Reagent sequences are not shown. Not given: the amount of reagent."}
{"gene": "sqa (spaghetti-squash activator)", "DRSC id": "DRSC06693", "firefly reporter light, replicate 1": 7.41e5, "firefly reporter light, replicate 2": 6.68e5, "Renilla control light, replicate 1": 1.37e6, "Renilla control light, replicate 2": 1.42e6, "outcome": "inactive"}
{"gene": "sqa (spaghetti-squash activator)", "DRSC id": "DRSC21635", "firefly reporter light, replicate 1": 8.43e5, "firefly reporter light, replicate 2": 6.52e5, "Renilla control light, replicate 1": 5.28e5, "Renilla control light, replicate 2": 6.45e5, "outcome": "inactive"}
{"gene": "sqa (spaghetti-squash activator)", "DRSC id": "DRSC39263", "outcome": "inactive"}
{"gene": "sqa (spaghetti-squash activator)", "DRSC id": "DRSC39313", "outcome": "inactive"}
{"gene": "Slmap (Sarcolemma associated protein)", "DRSC id": "DRSC03799", "firefly reporter light, replicate 1": 1.15e5, "firefly reporter light, replicate 2": 1.11e5, "Renilla control light, replicate 1": 1.09e6, "Renilla control light, replicate 2": 1.03e6, "outcome": "inactive"}
{"gene": "CG3690", "DRSC id": "DRSC18170", "firefly reporter light, replicate 1": 2.67e5, "firefly reporter light, replicate 2": 2.81e5, "Renilla control light, replicate 1": 5.47e6, "Renilla control light, replicate 2": 4.40e6, "outcome": "inactive"}
{"gene": "CG3690", "DRSC id": "DRSC18641", "firefly reporter light, replicate 1": 2.99e5, "firefly reporter light, replicate 2": 4.10e5, "Renilla control light, replicate 1": 5.88e6, "Renilla control light, replicate 2": 3.92e6, "outcome": "inactive"}
{"gene": "CG7546", "DRSC id": "DRSC08885", "firefly reporter light, replicate 1": 2.46e5, "firefly reporter light, replicate 2": 1.72e5, "Renilla control light, replicate 1": 5.45e5, "Renilla control light, replicate 2": 5.77e5, "outcome": "inactive"}
{"gene": "CG7546", "DRSC id": "DRSC10871", "firefly reporter light, replicate 1": 2.56e5, "firefly reporter light, replicate 2": 2.73e5, "Renilla control light, replicate 1": 2.39e6, "Renilla control light, replicate 2": 2.30e6, "outcome": "inactive"}
{"gene": "CG7546", "DRSC id": "DRSC22148", "firefly reporter light, replicate 1": 8.49e5, "firefly reporter light, replicate 2": 9.40e5, "Renilla control light, replicate 1": 2.07e6, "Renilla control light, replicate 2": 1.91e6, "outcome": "inactive"}
{"gene": "CSN1b (COP9 signalosome subunit 1b)", "DRSC id": "DRSC11108", "firefly reporter light, replicate 1": 42103, "firefly reporter light, replicate 2": 30234, "Renilla control light, replicate 1": 3.70e5, "Renilla control light, replicate 2": 3.75e5, "outcome": "inactive"}
{"gene": "CG4440", "DRSC id": "DRSC02747", "firefly reporter light, replicate 1": 1.07e5, "firefly reporter light, replicate 2": 51365, "Renilla control light, replicate 1": 2.13e6, "Renilla control light, replicate 2": 1.82e6, "outcome": "inactive"}
{"gene": "CG4440", "DRSC id": "DRSC28042", "firefly reporter light, replicate 1": 9.10e5, "firefly reporter light, replicate 2": 1.09e6, "Renilla control light, replicate 1": 1.61e6, "Renilla control light, replicate 2": 1.82e6, "outcome": "inactive"}
{"gene": "Spn28F (Serpin 28F)", "DRSC id": "DRSC03615", "firefly reporter light, replicate 1": 1.14e5, "firefly reporter light, replicate 2": 2.01e5, "Renilla control light, replicate 1": 1.56e6, "Renilla control light, replicate 2": 1.80e6, "outcome": "inactive"}
{"gene": "Spn28F (Serpin 28F)", "DRSC id": "DRSC25759", "firefly reporter light, replicate 1": 5.39e5, "firefly reporter light, replicate 2": 5.14e5, "Renilla control light, replicate 1": 1.21e6, "Renilla control light, replicate 2": 7.89e5, "outcome": "inactive"}
{"gene": "r (rudimentary)", "DRSC id": "DRSC19813", "firefly reporter light, replicate 1": 5.29e5, "firefly reporter light, replicate 2": 3.92e5, "Renilla control light, replicate 1": 4.35e6, "Renilla control light, replicate 2": 2.84e6, "outcome": "inactive"}
{"gene": "r (rudimentary)", "DRSC id": "DRSC19814", "firefly reporter light, replicate 1": 4.25e5, "firefly reporter light, replicate 2": 5.37e5, "Renilla control light, replicate 1": 2.63e6, "Renilla control light, replicate 2": 2.93e6, "outcome": "inactive"}
{"gene": "r (rudimentary)", "DRSC id": "DRSC39150", "firefly reporter light, replicate 1": 9.55e5, "firefly reporter light, replicate 2": 1.07e6, "Renilla control light, replicate 1": 1.66e6, "Renilla control light, replicate 2": 1.66e6, "outcome": "inactive"}
{"gene": "hfp (half pint)", "DRSC id": "DRSC08731", "firefly reporter light, replicate 1": 36607, "firefly reporter light, replicate 2": 59793, "Renilla control light, replicate 1": 6.23e5, "Renilla control light, replicate 2": 8.55e5, "outcome": "inactive"}
{"gene": "hfp (half pint)", "DRSC id": "DRSC08732", "firefly reporter light, replicate 1": 1.03e5, "firefly reporter light, replicate 2": 1.56e5, "Renilla control light, replicate 1": 9.37e5, "Renilla control light, replicate 2": 1.27e6, "outcome": "inactive"}
{"gene": "hfp (half pint)", "DRSC id": "DRSC22408", "firefly reporter light, replicate 1": 4.82e5, "firefly reporter light, replicate 2": 8.65e5, "Renilla control light, replicate 1": 1.64e6, "Renilla control light, replicate 2": 2.40e6, "outcome": "inactive"}
{"gene": "hfp (half pint)", "DRSC id": "DRSC25143", "firefly reporter light, replicate 1": 4.92e5, "firefly reporter light, replicate 2": 4.40e5, "Renilla control light, replicate 1": 6.01e5, "Renilla control light, replicate 2": 6.62e5, "outcome": "inactive"}
{"gene": "l(3)72Dr (lethal (3) 72Dr)", "DRSC id": "DRSC10478", "firefly reporter light, replicate 1": 2.09e5, "firefly reporter light, replicate 2": 1.61e5, "Renilla control light, replicate 1": 1.95e6, "Renilla control light, replicate 2": 1.68e6, "outcome": "inactive"}
{"gene": "PH4alphaNE1 (prolyl-4-hydroxylase-alpha NE1)", "DRSC id": "DRSC16546", "firefly reporter light, replicate 1": 89243, "firefly reporter light, replicate 2": 84133, "Renilla control light, replicate 1": 6.77e5, "Renilla control light, replicate 2": 4.82e5, "outcome": "inactive"}
{"gene": "PH4alphaNE1 (prolyl-4-hydroxylase-alpha NE1)", "DRSC id": "DRSC26942", "firefly reporter light, replicate 1": 4.93e5, "firefly reporter light, replicate 2": 3.27e5, "Renilla control light, replicate 1": 7.98e5, "Renilla control light, replicate 2": 5.43e5, "outcome": "inactive"}
{"gene": "CG7304", "DRSC id": "DRSC10804", "firefly reporter light, replicate 1": 2.04e5, "firefly reporter light, replicate 2": 2.04e5, "Renilla control light, replicate 1": 2.52e6, "Renilla control light, replicate 2": 1.52e6, "outcome": "inactive"}
{"gene": "CG7304", "DRSC id": "DRSC29103", "firefly reporter light, replicate 1": 4.88e5, "firefly reporter light, replicate 2": 7.88e5, "Renilla control light, replicate 1": 1.11e6, "Renilla control light, replicate 2": 1.37e6, "outcome": "inactive"}
